Taken from: PubChem BioAssay AID1508588 (Peter MacCallum Cancer Centre, 2020)

Purpose: 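Knock-downs boosting vemurafenib effects on melanoma cell growth or lactate release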 (primary screen)
System: human WM266.4 melanoma cells (BRAF V600 mutant)
Reagent: siRNA pool against human genes, 40 nM
Timing: 96 h from transfection to read-out
Conditions: vemurafenib 300 nM (about IC25), added 48 h after transfection, for 48 h; comparison arm got DMSO vehicle only
Measurement: 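Cell gain (DAPI nuclei at end minus before drug, mean of two replicates) and medium lactate by absorbance per cell, both as ratio to non-targeting siRNA, also grouped into fold-change classes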
Direction: cell gain with vemurafenib: higher = more cell gain than with non-targeting siRNA; lactate per cell with vemurafenib: higher = more lactate made per cell
Call rule: 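a knock-down counts as enhancing when its fold-change classes with vehicle and with vemurafenib, taken together, show a stronger drug effect on cell gain or lactate per cell; exact class pairs not stated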
Meaning of the calls: active = enhances vemurafenib effect; inactive = no enhancement seen
The whole screen tested about 18,000 reagents; shown is a part drawn at random. Of all reagents, 790 (4.4%) were called active. 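Calls rest on a combination of fold-change classes in drug and vehicle arms, not all shown here.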

cell gain with vemurafenib | lactate per cell with vemurafenib | call | gene | PubChem SID
0.69 | 0.82 | inactive | GALNT6 | SID135622305
0.99 | 0.97 | inactive | HYOU1 | SID135620721
0.37 | 1.27 | inactive | MAK | SID56478884
0.41 | 1.22 | inactive | PNMA5 | SID135622900
0.54 | 0.72 | inactive | HSPA12A | SID152153532
1.08 | 1.01 | inactive | TGFBRAP1 | SID152148865
0.7 | 0.86 | inactive | PDE3A | SID135621424
0.55 | 0.78 | inactive | OGT | SID134322920
1.14 | 0.96 | inactive | HOXA4 | SID152148251
0.32 | 1.19 | inactive | PDZD9 | SID134322217
0.69 | 0.62 | inactive | NARF | SID152148779
0.42 | 1.58 | inactive | PGAP1 | SID134313036
0.87 | 1.17 | inactive | NDUFB9 | SID152153945
0.53 | 0.26 | inactive | ZNF789 | SID134326349
0.68 | 0.43 | inactive | OR2K2 | SID135624545
0.89 | 0.63 | inactive | POPDC1 | SID152148863
1.28 | 0.8 | inactive | AFDN-DT | SID135625542
0.24 | 0.95 | inactive | CDK2AP2 | SID134319816
0.89 | 0.8 | inactive | FMN2 | SID135624279
1 | 0.6 | inactive | ZMYND10 | SID134324986
0.66 | 1.48 | inactive | COXFA4L2 | SID134320123
0.25 | 0.99 | inactive | EGLN2 | SID134310357
0.64 | 1.05 | inactive | NOVA2 | SID134316852
1.11 | 0.86 | inactive | EPHX2 | SID152152560
0.18 | 0.72 | inactive | KAAG1 | SID134322652
0.47 | 1.84 | inactive | STK24 | SID135620898
0.62 | 0.74 | inactive | ADH6 | SID152147487
0.34 | 1.62 | inactive | ATG4A | SID135621073
0.74 | 1.05 | inactive | CA12 | SID134309977
0.93 | 0.62 | inactive | RABIF | SID152155645
0.43 | 1.44 | inactive | NDUFB3 | SID152153124
0.49 | 1.6 | inactive | IFNL2 | SID134312913
0.88 | 1.19 | inactive | GET3 | SID135621817
0.48 | 0.77 | inactive | SEPTIN11 | SID134323977
